Test results published in patent US20140178902A1, “METHOD FOR DETECTING INFECTIONS” (priority 2011, published 2014).

Assay: FusC ELISA of urine and sera, animal model of invasive pulmonary aspergillosis
Assay type: in vivo, Guinea pig
Conditions: for earliest detection in urine post-infection: some samples
[1] = immunocompromised guinea pigs inoculated with A. fumigatus

Compound: C/C1=C/C(=O)N(O)CCCC(N)C(=O)OCC/C(C)=C\C(=O)N(O)CCCC(N)C(=O)OCC/C(C)=C\C(=O)N(O)CCCC(N)C(=O)OCC1 (stereo not shown) [FusC, fusarinine C]
- earliest detection in urine post-infection (EF2 ELISA): 5 days
- earliest detection in urine post-infection (EF3 ELISA): 5 days
- FusC detection in sera [1]: detectable
- FusC detection in urine [1]: detectable
